Assay results from patent US20230126310A1 (priority 2020, published 2023).

Tested on: SARS-CoV-2
Assay: microbe, parasite or virus in culture
Conditions: Severe acute respiratory syndrome coronavirus 2, Caco-2, 48 h, read-out: % Inh. (% Inhibition of SARS-CoV-2)

Q: For `O=C(CCCN1CCC2(CC1)C(=O)NCN2c1ccccc1)c1ccc(F)cc1` [spiperone], which inhibition at 10 µM is on record?
A: The inhibition at 10 µM was 56.9%.
